Data: PubChem BioAssay AID1347423 (Functional Genomics Laboratory (NCATS/FGL), 2020)
Out of some 52,000 sequences screened, about 210 (0.4%) were called active.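 How the source made its calls: active means gene whose silencing raises cell survival under the drug, median off-target-corrected z-score across its silencing RNAs 2 or more; inactive means the rest.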 This is one part of the list.

Assay: Resistance to Poly (ADP-Ribose) Polymerase inhibitor: Gene Identification via Genome-wide siRNA Screen
Details: mouse BRCA2 R2336H ES cells, olaparib, CellTiter-Glo viability; stronger effect = higher value
How it was run: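 Genome-wide siRNA screen (3 siRNAs/gene, 20 nM) in mouse ES cells carrying hypomorphic BRCA2 R2336H; olaparib 500 nM added 48 h post-transfection, CellTiter-Glo viability 72 h later. Normalized to plate-median negative control; MAD z-scores, gene median, seed-adjusted.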

Sequence | z-score
GGGAAAAAGAAAGCCCUUGTT against Olfr706 | inactive: 0.0739
GCCCAUACUUCCUCUUUGATT against 9330128H10Rik | inactive: -0.513
GGAAAAGAAGACAUUUCUCTT against Osbpl8 | inactive: 0.399
GGGAAAGGAUUUUUACAUUTT against Ctdsp1 | inactive: 0.709
GGAUAUUACACCUACUUCUTT against Mmp24 | inactive: -0.499
GGGUUUGAAUGUUAUGACATT against 4930507C10Rik | inactive: -0.813
GGAACCAAUCCAUAUUUGATT against Tnks | inactive: 0.105
GGACGCAUGAUGUGGGUUCTT against 5730578N08Rik | inactive: -0.754
CGGAUUCAGACCAAUUGGUTT against Hkr2 | inactive: 0.0697
GCUCCACCAAACUAAUGCGTT against Polrmt | inactive: 0.848
CCAUAGACUUCAUUGUACATT against Lipf | inactive: 1.1
CCACUCAAUCCUUAGCAAGTT against Abi2 | inactive: 0.352
GCUGUGGAACUUAUGUUUUTT against 6230409E13Rik | inactive: -0.139
GGAUACAGAAGGUUUUCUUTT against Abcd4 | inactive: 0.129
CCCAGCUCAGGUUUCUAUGTT against Dact2 | inactive: 0.315
GCCGAUGUCAGUGGUUAAATT against Bmx | inactive: 0.0782
GCAUAGUUCAGAUUUACAGTT against Zfp27 | inactive: -0.178
UACAGGGUUAGCUCAUCACTT against LOC382243 | inactive: -1.54
GCUAGACCAGAAGAAAGUATT against 2310003C23Rik | inactive: -0.974
CGAUGGGUUGUAUGAGACCTT against Fut10 | inactive: 1.42
GGAUUAUUCCCAGUAUGAGTT against Krt1-23 | inactive: -1.21
GCUUUCAUAGAAUCUUGGCTT against Rnf24 | inactive: -0.646
GGCAGAGGAAAUCAUGAAGTT against Clpp | inactive: 0.653
GGAAGAGGAAGAUAUUGAUTT against Bbx | inactive: 0.746
GGUCAAGAGGAAGGAGCCATT against BC035291 | inactive: -2.59
CGUAGUAGCCACGUCUACUTT against 1810022C23Rik | inactive: -1.84
CCACCACCUAUUACAAUGATT against Lcn5 | inactive: 0.184
GCGUGUCACGUUCCCAUCUTT against BC024868 | inactive: 1.05
GCGAACUCAAGCUGUAACCTT against Grhpr | inactive: -0.695

Looked up above:
z-score, CGUAGUAGCCACGUCUACUTT against 1810022C23Rik reads inactive: -1.84
z-score, GGGAAAGGAUUUUUACAUUTT against Ctdsp1 reads inactive: 0.709
